In the supplement of paper PMC6078165:
± gives the standard deviation of the averaged measurements. The reference is the same well before dosing, and untreated signal decays as well.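 Fibroblast labels denote human fibroblasts, mainly primary ones from uterus (C12385, HUF), lung (H6013), bone (Hs27A), adrenal (HADF) and skin (WS1), plus mammary HMF and breast cancer-associated Hs343T. Cancer cells are basal-like or mesenchymal-like triple-negative breast cancer lines. A hit is a response shift exceeding 3x replicate standard deviation. The tissue of the other fibroblasts is not given here.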

Test system: BT20
Assay: relative JC-1 red fluorescence (viability) vs pre-drug, coculture with fibroblast (fraction); higher = more viable cancer cells
Details: 10 µM
Experimental: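 JC-1 labelled TNBC cells cocultured 1:1 (1,500 cells each) with CellTrace Violet stained primary or stromal fibroblasts in 384-well plates in FluoroBrite medium, treated with one of 42 anticancer drugs at 0.1, 1, 10 or 100 uM. JC-1 red fluorescence (mitochondrial integrity in cancer cells only) was read by plate reader every 8 h for 72 h. Values are normalised to each well's pre-drug value. The stock of one drug was tenfold lower, so its dose labels may be too high.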

CC[C@]1(O)C[C@@H]2CN(CCc3c([nH]c4ccccc34)[C@@](C(=O)OC)(c3cc4c(cc3OC)N(C)[C@H]3[C@@](O)(C(=O)OC)[C@H](OC(C)=O)[C@]5(CC)C=CCN6CC[C@]43[C@@H]65)C2)C1 [Vinblastine]
relative JC-1 red fluorescence
Details	8 h	16 h	24 h	32 h	40 h	48 h	56 h	64 h	72 h
coculture fibroblast: C12385	0.8386 ± 0.0041	0.811 ± 0.016	0.783 ± 0.019	0.744 ± 0.021	0.674 ± 0.022	0.64 ± 0.021	0.624 ± 0.0087	0.5955 ± 0.0012	0.568 ± 0.011
coculture fibroblast: H6013	0.8962 ± 0.0014	0.865 ± 0.014	0.832 ± 0.024	0.784 ± 0.021	0.749 ± 0.0097	0.728 ± 0.0096	0.7083 ± 0.003	0.6824 ± 0.0036	0.668 ± 0.0092
coculture fibroblast: H6019	0.8276 ± 0.0052	0.772 ± 0.01	0.7561 ± 0.0012	0.709 ± 0.002	0.6475 ± 0.0018	0.632 ± 0.0013	0.605 ± 0.013	0.59 ± 0.027	0.585 ± 0.015
coculture fibroblast: H6076	0.978 ± 0.024	0.902 ± 0.012	0.823 ± 0.021	0.791 ± 0.017	0.7534 ± 0.004	0.703 ± 0.0031	0.673 ± 0.0088	0.649 ± 0.021	0.618 ± 0.033
coculture fibroblast: H6231	0.83959 ± 0.00043	0.937 ± 0.012	0.833 ± 0.0092	0.752 ± 0.011	0.71728 ± 0.00025	0.665 ± 0.021	0.617 ± 0.031	0.588 ± 0.038	0.548 ± 0.04
coculture fibroblast: HADF	0.964 ± 0.043	0.932 ± 0.073	0.894 ± 0.093	0.87 ± 0.12	0.863 ± 0.16	0.829 ± 0.18	0.83 ± 0.21	0.81 ± 0.21	0.786 ± 0.23
coculture fibroblast: HCFa	0.9218 ± 0.0035	0.897 ± 0.034	0.864 ± 0.06	0.802 ± 0.074	0.757 ± 0.09	0.722 ± 0.073	0.691 ± 0.082	0.674 ± 0.086	0.648 ± 0.093
coculture fibroblast: HCPF	0.913 ± 0.087	0.928 ± 0.042	0.829 ± 0.026	0.768 ± 0.025	0.719 ± 0.022	0.672 ± 0.014	0.6322 ± 0.0052	0.6048 ± 0.0057	0.556 ± 0.0083
coculture fibroblast: HHSteC	0.9206 ± 0.0034	0.912 ± 0.039	0.886 ± 0.069	0.794 ± 0.093	0.753 ± 0.084	0.71 ± 0.089	0.663 ± 0.11	0.63 ± 0.1	0.593 ± 0.11
coculture fibroblast: HMF	0.836 ± 0.001	0.96 ± 0.011	0.871 ± 0.029	0.792 ± 0.033	0.7218 ± 0.0056	0.659 ± 0.024	0.605 ± 0.022	0.567 ± 0.014	0.527 ± 0.018
coculture fibroblast: HPFa	0.89816 ± 0.00063	0.838 ± 0.011	0.828 ± 0.024	0.7299 ± 0.0053	0.705 ± 0.031	0.672 ± 0.047	0.636 ± 0.05	0.613 ± 0.064	0.583 ± 0.045
coculture fibroblast: HUF	0.8844 ± 0.004	0.8148 ± 0.0025	0.7878 ± 0.006	0.698 ± 0.015	0.646 ± 0.016	0.597 ± 0.022	0.567 ± 0.034	0.539 ± 0.039	0.518 ± 0.047
coculture fibroblast: Hs5	0.793 ± 0.036	0.947 ± 0.024	0.873 ± 0.03	0.818 ± 0.041	0.76 ± 0.04	0.713 ± 0.028	0.662 ± 0.033	0.626 ± 0.045	0.606 ± 0.038
coculture fibroblast: Hs27A	0.749 ± 0.063	0.887 ± 0.13	0.8714 ± 0.0034	0.877 ± 0.07	0.842 ± 0.083	0.846 ± 0.11	0.84 ± 0.1	0.821 ± 0.096	0.78 ± 0.11
coculture fibroblast: Hs343T	0.904 ± 0.1	0.86 ± 0.062	0.863 ± 0.046	0.794 ± 0.032	0.7238 ± 0.0044	0.654 ± 0.011	0.585 ± 0.032	0.557 ± 0.042	0.521 ± 0.044
coculture fibroblast: WS1	0.819 ± 0.0084	0.773 ± 0.015	0.7352 ± 0.0035	0.6545 ± 0.005	0.573 ± 0.016	0.529 ± 0.017	0.487 ± 0.013	0.457 ± 0.024	0.431 ± 0.024
